# Over roughly 33,000 sequences, “E-score (-0.5 to 0.5)” has its median near -0.0034; the highest 2% begin near 0.25. The list shows a part of the results.
# Molecular target: T1, Yap3 (UniProt P38749)
# T1 sequence: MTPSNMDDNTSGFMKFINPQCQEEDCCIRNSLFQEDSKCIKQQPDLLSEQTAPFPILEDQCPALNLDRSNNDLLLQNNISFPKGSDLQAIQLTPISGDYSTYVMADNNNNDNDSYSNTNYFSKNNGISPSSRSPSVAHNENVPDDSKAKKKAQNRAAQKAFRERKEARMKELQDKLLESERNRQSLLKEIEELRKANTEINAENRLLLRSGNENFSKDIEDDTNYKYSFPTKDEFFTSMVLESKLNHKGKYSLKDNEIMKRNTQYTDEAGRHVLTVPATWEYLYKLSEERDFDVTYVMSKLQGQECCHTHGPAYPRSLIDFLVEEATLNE
# Experiment: PBM E-score (8-mer binding enrichment) (E-score (-0.5 to 0.5)); higher = stronger / more preferred TF binding
# Details: protein concentration: 100 nM; construct: GST-full length
# Summary of the method: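 E-scores (a modified Wilcoxon-Mann-Whitney statistic) were assigned by the Universal PBM Analysis Suite to every ungapped eight-base word pooled with its reverse complement. The input came from universal all-10-mer Agilent arrays made double-stranded by primer extension and probed with GST-tagged yeast transcription factors at about 100-200 nM. Fluorescent anti-GST detected bound protein, and masliner normalised the scans.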
row,Sequence,PBM E-score
1,ACTATGCC,-0.0279
2,ATTACTCA,0.299
3,CCAAATGC,0.0716
4,AGTACTAT,0.0279
5,CAGTCAAA,-0.0396
6,ACAGGCAC,-0.0534
7,ATAGAGAA,0.197
8,CCCGATGA,0.0319
9,TATGGCGA,-0.0502
10,AGATAAGA,0.24
11,CTTACAGA,-0.195
12,AGCGCAGC,-0.217
13,CAATGCAG,-0.0332
14,CGTGACTA,0.0867
15,AATACCGA,0.0401
16,ACTCTGAA,0.00928
17,CTAATCGA,0.125
18,AATACATT,0.206
19,CGAGACGC,0.0668
20,AGGAGCAT,0.0355
21,AGTTAACC,0.0307
22,TCTTAACA,0.164
23,AAACGCTT,0.0404
24,CACTTGAA,0.239

row,Sequence,PBM E-score
1,CGCATAGA,0.125
2,GAATCACA,0.0551
3,AGCTTGAC,-0.0896
4,CCCCCTTA,-0.173
5,AATCTACA,0.0627
6,AGTGACAC,-0.0141
7,CCCTACTC,0.0112
8,CTTACATA,0.248
9,CAATCGTC,0.138
10,CCGTCACA,-0.164
11,TACTTTCA,0.177
12,ACGAAGGG,-0.188
13,GGCGTTAC,-0.244
14,ACCTTAGG,-0.123
15,ACGTAGGC,-0.182
16,AGATACCG,0.0481
17,CTTGGCTC,-0.192
18,AGCGGAGG,-0.283
19,AACCTATC,0.0574
20,AAAGCTCT,-0.168
21,GTGTTGAA,-0.00697
22,AAGGTCCA,-0.105
23,GACCGATC,-0.0901
24,ATTGAATG,0.204

row,Sequence,PBM E-score
1,CAAGTACG,-0.181
2,AGTCCTCA,0.0148
3,ATCCTGCA,0.113
4,CGCAGACG,-0.0471
5,AGAAGCCC,-0.167
6,GGGCCCCA,-0.3
7,CATAGGTC,0.0459
8,CAGACGAG,-0.126
9,CGCTTAAC,0.0483
10,GGGCCACA,-0.133
11,CCGTCGTC,-0.129
12,ATTCGCGC,0.0553
13,CCGTATCG,-0.178
14,CCGCGCAG,-0.111
15,GGTCTGAA,-0.0382
16,AGCCGATA,0.0291
17,ACAGACGG,-0.11
18,AAATGGCC,-0.0507
19,GCTGTGGA,-0.0368
20,ATGAGGCC,-0.143
21,ACTTACGG,0.0411
22,CTTGACTC,-0.161
23,AGGAGGCA,-0.12
24,CGGATGTA,0.109

row,Sequence,PBM E-score
1,AGGCTTCC,-0.0483
2,CCCGTGAA,0.0163
3,TTGGTAAA,0.113
4,GAATCGCC,-0.277
5,GTAGAAAA,0.185
6,TGATCTAA,-0.00748
7,GTATCACA,0.183
8,TTACAGAA,0.0743
9,GGAATCGA,-0.059
10,AACATCAC,0.121
11,ATACACAC,-0.00358
12,GAACAAAC,0.227
13,AGTCGTGG,-0.0812
14,ACGGCGGA,-0.161
15,AGCACGTC,0.112
16,AGTACCAA,0.281
17,CCGGGCCC,-0.0537
18,TGCGTTAA,-0.0586
19,CAAAGGGA,-0.075
20,CCATAGAA,0.0478
21,CAAATTCC,0.148
22,CACGGTTA,0.122

# 21 entries from above, with tabs.
row	Sequence	PBM E-score
24	CGGATGTA	0.109
1	AGGCTTCC	-0.0483
2	CCCGTGAA	0.0163
3	TTGGTAAA	0.113
4	GAATCGCC	-0.277
5	GTAGAAAA	0.185
6	TGATCTAA	-0.00748
7	GTATCACA	0.183
8	TTACAGAA	0.0743
9	GGAATCGA	-0.059
10	AACATCAC	0.121
11	ATACACAC	-0.00358
12	GAACAAAC	0.227
13	AGTCGTGG	-0.0812
14	ACGGCGGA	-0.161
15	AGCACGTC	0.112
16	AGTACCAA	0.281
17	CCGGGCCC	-0.0537
18	TGCGTTAA	-0.0586
19	CAAAGGGA	-0.075
20	CCATAGAA	0.0478
